# No constants are given. Whether binding was seen depends on the method and setting.
# B1: Neisserial heparin-binding antigen (NHBA) peptide 20 (protein, UniProt Q9JPP1 18-427)
# chain: CGGGGGGSPDVKSADTLSKPAAPVVAEKETEVKEDAPQAGSQGQGAPSTQGSQDMAAVSAENTGNGGAATTDKPKNEDEGPQNDMLQNSAESANQTGNNQPADSSDSAPASNPAPANGGSNFGRVDLANGVLIDGPSQNITLTHCKGDSCNGDNLLDEEAPSKSEFENLNESERIEKYKKDGKSDKFTNLVATAVQANGTNKYVIIYKDKSASSSFARFRRSARSRRSLPAEMPLIPVNQADTLIVDGEAVSLTGHSGNIFAPEGNYRYLTYGAEKLPGGSYALRVQGEPAKGEMLAGTAVYNGEVLHFHTENGRPYPTRGRFAAKVDFGSKSVDGIIDSGDDLHMGTQKFKAAIDGNGFKGTWTENGGGDVSGRFYGPAGEEVAGKYSYRPTDAEKGGFGVFAGKKEQD
# Target: Fab 10C3 (human)
# Assay: condition: 100 nM (highest concentration of the titration, 6.25 to 100 nM); SPR; Biacore T200, 25 °C; Fab (800-1100 RU) captured by anti-Fab mAbs (Human Fab Capture Kit) on a CM5 chip; NHBA injected, single-cycle kinetics, five injections 6.25-100 nM, 30 µl/min; HBS-EP (10 mM HEPES, 150 mM NaCl, 3 mM EDTA, 0.05% P20, pH 7.4); 1:1 Langmuir model with mass-transfer term; duplicate; both purified
binder,measurement,value
B1,binding,no binding
